No constants are given. Whether binding was seen depends on the method and setting. In cells and extracts the contact can be indirect. A result given as binding can be weak or reduced; the word gives no strength.
B1: protein kinase C (PKC)ζ (enzyme, UniProt Q05513 1-592)
chain: MPSRTGPKMEGSGGRVRLKAHYGGDIFITSVDAATTFEELCEEVRDMCRLHQQHPLTLKWVDSEGDPCTVSSQMELEEAFRLARQCRDEGLIIHVFPSTPEQPGLPCPGEDKSIYRRGARRWRKLYRANGHLFQAKRFNRRAYCGQCSERIWGLARQGYRCINCKLLVHKRCHGLVPLTCRKHMDSVMPSQEPPVDDKNEDADLPSEETDGIAYISSSRKHDSIKDDSEDLKPVIDGMDGIKISQGLGLQDFDLIRVIGRGSYAKVLLVRLKKNDQIYAMKVVKKELVHDDEDIDWVQTEKHVFEQASSNPFLVGLHSCFQTTSRLFLVIEYVNGGDLMFHMQRQRKLPEEHARFYAAEICIALNFLHERGIIYRDLKLDNVLLDADGHIKLTDYGMCKEGLGPGDTTSTFCGTPNYIAPEILRGEEYGFSVDWWALGVLMFEMMAGRSPFDIITDNPDMNTEDYLFQVILEKPIRIPRFLSVKASHVLKGFLNKDPKERLGCRPQTGFSDIKSHAFFRSIDWDLLEKKQALPPFQPQITDDYGLDNFDTQFTSEPVQLTPDDEDAIKRIDQSEFEGFEYINPLLLSTEESV
B2: MEK5 (enzyme, UniProt Q13163 1-448)
chain: MLWLALGPFPAMENQVLVIRIKIPNSGAVDWTVHSGPQLLFRDVLDVIGQVLPEATTTAFEYEDEDGDRITVRSDEEMKAMLSYYYSTVMEQQVNGQLIEPLQIFPRACKPPGERNIHGLKVNTRAGPSQHSSPAVSDSLPSNSLKKSSAELKKILANGQMNEQDIRYRDTLGHGNGGTVYKAYHVPSGKILAVKVILLDITLELQKQIMSELEILYKCDSSYIIGFYGAFFVENRISICTEFMDGGSLDVYRKMPEHVLGRIAVAVVKGLTYLWSLKILHRDVKPSNMLVNTRGQVKLCDFGVSTQLVNSIAKTYVGTNAYMAPERISGEQYGIHSDVWSLGISFMELALGRFPYPQIQKNQGSLMPLQLLQCIVDEDSPVLPVGEFSEPFVHFITQCMRKQPKERPAPEELMGHPFIVQFNDGNAAVVSMWVCRALEERRSQQGPP

Target: β-arrestin (human (endogenous in OSCC patient-derived CAFs))
Assay: co-IP; endogenous proteins; IP antibody (anti-ERK5, anti-Gαq or anti-β-arrestin) or IgG isotype on protein A/G magnetic beads, 1 h at room temperature with lysates of CAFs with sa-NC or sa-OXTR; beads washed five times with lysis buffer; immunoblot

Binder	binding
B1	binds weakly
B2	binds weakly

From paper PMC9433374
